Values joined by “and” are separate entries in the source; they are usually repeats but may differ in a detail not shown here. Identical values can stand only once. The list shows a part of the results. These are further read-outs of the screen, such as a control signal, another cell line or another target. No call is given for them. Compounds called inactive in the main read-out are mostly missing here. The note in brackets gives the kind of curve behind each potency; many fits are weak.
experiment: qHTS assay for small molecule antagonists of peroxisome proliferator-activated receptor gamma signaling (AID 588537); settings: HEK293 PPARg-UAS-bla, beta-lactamase ratio, antagonist mode; measured here: W460 blue channel
How it was run: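 Antagonist-mode β-lactamase reporter screen run as a titration series. HEK293 PPARγ-UAS-bla cells are stimulated with rosiglitazone (50 nM final) for 16 h, then CCF4 is read at 460/530 nm. Data are scaled between DMSO and rosiglitazone and fitted to the Hill equation.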

| SMILES | AC50 |
| --- | --- |
| CC=O | 44.7 µM [rising, single point] |
| ClC(Cl)=C(Cl)Cl | 63.1 µM [rising, single point] |
| CC(=O)/C=C/c1ccccc1 | 50.1 µM [rising, single point] |
| CCNc1nc(NCC)nc(SC)n1 | 39.8 µM [falling, partial curve, poor fit] |
| Cc1cccc2sc3nncn3c12 | 0.0178 µM [falling, full curve, poor fit] |
| COc1ccc(O)c(C(C)(C)C)c1 | 0.0316 µM [falling, full curve, poor fit] |
| CCC(=O)Nc1ccc(Cl)c(Cl)c1 | 0.0708 µM [falling, full curve, poor fit] |
| CC(C)N1C(=O)c2ccccc2NS1(=O)=O | 0.00126 µM [falling, full curve, poor fit] |
| O=NN1CCCCC1 | 63.1 µM [rising, single point] |
| O=[N+]([O-])c1c(Cl)c(Cl)cc(Cl)c1Cl | 39.8 µM [falling, partial curve, poor fit] |
| O=C(O)CC(O)(CC(=O)O)C(=O)O | 0.0282 µM [falling, full curve, poor fit] |
| COP(N)(=O)SC (centres undefined) | 1.26 nM [falling, full curve, poor fit] and 794 µM [falling, partial curve, poor fit] |
| O=[N+]([O-])c1cc(Cl)c(Cl)c(Cl)c1 | 70.8 µM [rising, single point] |
| c1cc2ccc3cccc4ccc(c1)c2c34 | 50.1 µM [rising, single point] |
| Cc1cccc(C)c1N | 50.1 µM [rising, single point] |
| C=CCOCC1CO1 (centres undefined) | 63.1 µM [rising, single point] |
| CC(Cl)(Cl)Cl | 4.47 µM [falling, partial curve, poor fit] |
| ClCC(Cl)Cl | 50.1 µM [rising, single point] |
| CCOP(=O)(OCC)SCSC(C)(C)C | 0.00158 µM [falling, full curve, poor fit] |
| Cc1cccnc1 | 63.1 µM [rising, single point] |

| SMILES | AC50 |
| --- | --- |
| C=CCC1=C(C)[C@@H](OC(=O)[C@@H]2[C@@H](C=C(C)C)C2(C)C)CC1=O | 0.00126 µM [falling, full curve, poor fit] |
| O=S(=O)(O)F | 44.7 µM [rising, single point] |
| O=C(NC(=O)c1c(F)cccc1F)Nc1ccc(OC(F)(F)C(F)OC(F)(F)F)c(Cl)c1 (centres undefined) | 0.0398 µM [falling, full curve, poor fit] |
| C=CC(=O)OCCN(C)C | 50.1 µM [rising, single point] |
| c1ccc(N=Nc2ccccc2)cc1 | 50.1 µM [rising, single point] |
| CN(C)N=O | 50.1 µM [rising, single point] |
| ClC(Cl)C(Cl)Cl | 44.7 µM [rising, single point] |
| Nc1ncc([N+](=O)[O-])s1 | 70.8 µM [rising, single point] |
| COC(=O)/C=C(\C)OP(=O)(OC)OC | 8.91 µM [falling, partial curve] |
| COc1ccc(C)cc1N | 50.1 µM [rising, single point] |
| CC(CCl)OC(C)CCl (centres undefined) | 8.91 µM [falling, partial curve, poor fit] |
| CC(Cl)Cl | 70.8 µM [rising, single point] |
| N#CCCC#N | 70.8 µM [rising, single point] |
| Cc1ccc(N=C=O)cc1N=C=O | 39.8 µM [falling, partial curve, poor fit] |
| CC(C)OC(=O)Cc1ccccc1 | 70.8 µM [rising, single point] |
| BrCC(Br)C1CCC(Br)C(Br)C1 (centres undefined) | 63.1 µM [rising, single point] |
| c1ccc2occc2c1 | 1260 µM [falling, partial curve, poor fit] |
| C[N+](C)(C)Cc1ccccc1 | 50.1 µM [rising, single point] |
| CCOC(=O)CBr | 50.1 µM [rising, single point] |
